Source: patent US20250283871A1, “COMPOSITIONS AND METHODS FOR MODULATING THE INTERACTION BETWEEN SS18-SSX FUSION ONCOPROTEIN AND NUCLEOSOMES” (Dana-Farber Cancer Institute, Inc., priority 2020, published 2025)

Test system: BAF complex subunits and histone proteins
Experiment: Mass spectrometry proteomics of purified HA-SS18 WT and HA-SS18-SSX1 complexes (Tables 5A-5E)
Set-up: species or system human
[1] = HA-SS18SSX1_NE_peptides: protein co-purified with HA-SS18-SSX1 BAF complexes from soluble nuclear extract (NE), HEK-293T cells
[2] = HA-SS18WT_NE_peptides: HA-SS18 WT complexes purified from nuclear extract (NE), HEK-293T, label = protein identified (Gene Symbol)
[3] = HA-SS18WT_NE_peptides: proteins co-purified with HA-SS18 WT from nuclear extract (NE), HEK-293T

Molecule	Total (peptides) [1]	Unique (peptides) [1]	Total (peptides) [2]	Unique (peptides) [2]	Total (peptides) [3]	Unique (peptides) [3]
DEK (protein, UniProt P35659 2-375, looked up) Protein DEK: SASAPAAEGEGTPTQPASEKEPEMPGPREESEEEEDEDDEEEEEEEKEKSLIVEGKREKKKVERLTMQVSSLQREPFTIAQGKGQKLCEIERIHFFLSKKKTDELRNLHKLLYNRPGTVSSLKKNVGQFSGFPFEKGSVQYKKKEEMLKKFRNAMLKSICEVLDLERSGVNSELVKRILNFLMHPKPSGKPLPKSKKTCSKGSKKERNSSGMARKAKRTKCPEILSDESSSDEDEKKNKEESSDDEDKESEEEPPKKTAKREKPKQKATSKSKKSVKSANVKKADSSTTKKNQNSSKKESESEDSSDDEPLIKKLKKPPTDEELKETIKKLLASANLEEVTMKQICKKVYENYPTYDLTERKDFIKTTVKELIS	1	1	–	–	–	–
TAF1C (protein, UniProt Q15572 1-869, looked up) TATA box-binding …: MDFPSSLRPALFLTGPLGLSDVPDLSFMCSWRDALTLPEAQPQNSENGALHVTKDLLWEPATPGPLPMLPPLIDPWDPGLTARDLLFRGGCRYRKRPRVVLDVTEQISRFLLDHGDVAFAPLGKLMLENFKLEGAGSRTKKKTVVSVKKLLQDLGGHQPWGCPWAYLSNRQRRFSILGGPILGTSVASHLAELLHEELVLRWEQLLLDEACTGGALAWVPGRTPQFGQLVYPAGGAQDRLHFQEVVLTPGDNPQFLGKPGRIQLQGPVRQVVTCTVQGESKALIYTFLPHWLTCYLTPGPFHPSSALLAVRSDYHCAVWKFGKQWQPTLLQAMQVEKGATGISLSPHLPGELAICSRSGAVCLWSPEDGLRQIYRDPETLVFRDSSSWRWADFTAHPRVLTVGDRTGVKMLDTQGPPGCGLLLFRLGAEASCQKGERVLLTQYLGHSSPKCLPPTLHLVCTQFSLYLVDERLPLVPMLKWNHGLPSPLLLARLLPPPRPSCVQPLLLGGQGGQLQLLHLAGEGASVPRLAGPPQSLPSRIDSLPAFPLLEPKIQWRLQERLKAPTIGLAAVVPPLPSAPTPGLVLFQLSAAGDVFYQQLRPQVDSSLRRDAGPPGDTQPDCHAPTASWTSQDTAGCSQWLKALLKVPLAPPVWTAPTFTHRQMLGSTELRREEEEGQRLGVLRKAMARGQLLLQRDLGSLPAAEPPPAPESGLEDKLSERLGEAWAGRGAAWWERQQGRTSEPGRQTRRPKRRTQLSSSFSLSGHVDPSEDTSSPHSPEWPPADALPLPPTTPPSQELTPDACAQGVPSEQRQMLRDYMAKLPPQRDTPGCATTPPHSQASSVRATRSQQHTPVLSSSQPLRKKPRMGF	1	1	–	–	–	–
ALDH2 (protein, UniProt P05091 18-517, looked up) Aldehyde dehydrogenase, …: SAAATQAVPAPNQQPEVFCNQIFINNEWHDAVSRKTFPTVNPSTGEVICQVAEGDKEDVDKAVKAARAAFQLGSPWRRMDASHRGRLLNRLADLIERDRTYLAALETLDNGKPYVISYLVDLDMVLKCLRYYAGWADKYHGKTIPIDGDFFSYTRHEPVGVCGQIIPWNFPLLMQAWKLGPALATGNVVVMKVAEQTPLTALYVANLIKEAGFPPGVVNIVPGFGPTAGAAIASHEDVDKVAFTGSTEIGRVIQVAAGSSNLKRVTLELGGKSPNIIMSDADMDWAVEQAHFALFFNQGQCCCAGSRTFVQEDIYDEFVERSVARAKSRVVGNPFDSKTEQGPQVDETQFKKILGYINTGKQEGAKLLCGGGIAADRGYFIQPTVFGDVQDGMTIAKEEIFGPVMQILKFKTIEEVVGRANNSTYGLAAAVFTKDLDKANYLSQALQAGTVWVNCYDVFGAQSPFGGYKMSGSGRELGEYGLQAYTEVKTVTVKVPQKNS	1	1	–	–	–	–
ORC5 (protein, UniProt O43913 1-435, looked up) Origin recognition complex …: MPHLENVVLCRESQVSILQSLFGERHHFSFPSIFIYGHTASGKTYVTQTLLKTLELPHVFVNCVECFTLRLLLEQILNKLNHLSSSEDGCSTEITCETFNDFVRLFKQVTTAENLKDQTVYIVLDKAEYLRDMEANLLPGFLRLQELADRNVTVLFLSEIVWEKFRPNTGCFEPFVLYFPDYSIGNLQKILSHDHPPEYSADFYAAYINILLGVFYTVCRDLKELRHLAVLNFPKYCEPVVKGEASERDTRKLWRNIEPHLKKAMQTVYLREISSSQWEKLQKDDTDPGQLKGLSAHTHVELPYYSKFILIAAYLASYNPARTDKRFFLKHHGKIKKTNFLKKHEKTSNHLLGPKPFPLDRLLAILYSIVDSRVAPTANIFSQITSLVTLQLLTLVGHDDQLDGPKYKCTVSLDFIRAIARTVNFDIIKYLYDFL	1	1	3	3	–	–
SLC30A1 (protein, UniProt Q9Y6M5 1-507, looked up) Proton-coupled zinc …: MGCWGRNRGRLLCMLALTFMFMVLEVVVSRVTSSLAMLSDSFHMLSDVLALVVALVAERFARRTHATQKNTFGWIRAEVMGALVNAIFLTGLCFAILLEAIERFIEPHEMQQPLVVLGVGVAGLLVNVLGLCLFHHHSGFSQDSGHGHSHGGHGHGHGLPKGPRVKSTRPGSSDINVAPGEQGPDQEETNTLVANTSNSNGLKLDPADPENPRSGDTVEVQVNGNLVREPDHMELEEDRAGQLNMRGVFLHVLGDALGSVIVVVNALVFYFSWKGCSEGDFCVNPCFPDPCKAFVEIINSTHASVYEAGPCWVLYLDPTLCVVMVCILLYTTYPLLKESALILLQTVPKQIDIRNLIKELRNVEGVEEVHELHVWQLAGSRIIATAHIKCEDPTSYMEVAKTIKDVFHNHGIHATTIQPEFASVGSKSSVVPCELACRTQCALKQCCGTLPQAPSGKDAEKTPAVSISCLELSNNLEKKPRRTKAENIPAVVIEIKNMPNKQPESSL	1	1	–	–	–	–
SYPL1 (protein, UniProt Q16563 1-259, looked up) Synaptophysin-like protein 1: MAPNIYLVRQRISRLGQRMSGFQINLNPLKEPLGFIKVLEWIASIFAFATCGGFKGQTEIQVNCPPAVTENKTVTATFGYPFRLNEASFQPPPGVNICDVNWKDYVLIGDYSSSAQFYVTFAVFVFLYCIAALLLYVGYTSLYLDSRKLPMIDFVVTLVATFLWLVSTSAWAKALTDIKIATGHNIIDELPPCKKKAVLCYFGSVTSMGSLNVSVIFGFLNMILWGGNAWFVYKETSLHSPSNTSAPHSQGGIPPPTGI	1	1	–	–	1	1
NR2F2 (protein, UniProt P24468 1-414, looked up) COUP transcription factor 2: MAMVVSTWRDPQDEVPGSQGSQASQAPPVPGPPPGAPHTPQTPGQGGPASTPAQTAAGGQGGPGGPGSDKQQQQQHIECVVCGDKSSGKHYGQFTCEGCKSFFKRSVRRNLSYTCRANRNCPIDQHHRNQCQYCRLKKCLKVGMRREAVQRGRMPPTQPTHGQFALTNGDPLNCHSYLSGYISLLLRAEPYPTSRFGSQCMQPNNIMGIENICELAARMLFSAVEWARNIPFFPDLQITDQVALLRLTWSELFVLNAAQCSMPLHVAPLLAAAGLHASPMSADRVVAFMDHIRIFQEQVEKLKALHVDSAEYSCLKAIVLFTSDACGLSDVAHVESLQEKSQCALEEYVRSQYPNQPTRFGKLLLRLPSLRTVSSSVIEQLFFVRLVGKTPIETLIRDMLLSGSSFNWPYMAIQ	1	1	3	3	–	–
RAB39B (protein, UniProt Q96DA2 1-213, looked up) Ras-related protein Rab-39B: MEAIWLYQFRLIVIGDSTVGKSCLIRRFTEGRFAQVSDPTVGVDFFSRLVEIEPGKRIKLQIWDTAGQERFRSITRAYYRNSVGGLLLFDITNRRSFQNVHEWLEETKVHVQPYQIVFVLVGHKCDLDTQRQVTRHEAEKLAAAYGMKYIETSARDAINVEKAFTDLTRDIYELVKRGEITIQEGWEGVKSGFVPNVVHSSEEVVKSERRCLC	1	1	–	–	–	–
PCBP2 (protein, UniProt Q15366 1-365, looked up) Poly(rC)-binding protein 2: MDTGVIEGGLNVTLTIRLLMHGKEVGSIIGKKGESVKKMREESGARINISEGNCPERIITLAGPTNAIFKAFAMIIDKLEEDISSSMTNSTAASRPPVTLRLVVPASQCGSLIGKGGCKIKEIRESTGAQVQVAGDMLPNSTERAITIAGIPQSIIECVKQICVVMLETLSQSPPKGVTIPYRPKPSSSPVIFAGGQDRYSTGSDSASFPHTTPSMCLNPDLEGPPLEAYTIQGQYAIPQPDLTKLHQLAMQQSHFPMTHGNTGFSGIESSSPEVKGYWGLDASAQTTSHELTIPNDLIGCIIGRQGAKINEIRQMSGAQIKIANPVEGSTDRQVTITGSAASISLAQYLINVRLSSETGGMGSS	1	1	–	–	1	1
RCE1 (protein, UniProt Q9Y256 2-329, looked up) CAAX prenyl protease 2: AALGGDGLRLLSVSRPERPPESAALGGLGPGLCCWVSVFSCLSLACSYVGSLYVWKSELPRDHPAVIKRRFTSVLVVSSLSPLCVLLWRELTGIQPGTSLLTLMGFRLEGIFPAALLPLLLTMILFLGPLMQLSMDCPCDLADGLKVVLAPRSWARCLTDMRWLRNQVIAPLTEELVFRACMLPMLAPCMGLGPAVFTCPLFFGVAHFHHIIEQLRFRQSSVGNIFLSAAFQFSYTAVFGAYTAFLFIRTGHLIGPVLCHSFCNYMGFPAVCAALEHPQRRPLLAGYALGVGLFLLLLQPLTDPKLYGSLPLCVLLERAGDSEAPLCS	1	1	–	–	–	–
TSPYL1 (protein, UniProt Q9H0U9 1-437, looked up) Testis-specific …: MSGLDGVKRTTPLQTHSIIISDQVPSDQDAHQYLRLRDQSEATQVMAEPGEGGSETVALPPPPPSEEGGVPQDAAGRGGTPQIRVVGGRGHVAIKAGQEEGQPPAEGLAAASVVMAADRSLKKGVQGGEKALEICGAQRSASELTAGAEAEAEEVKTGKCATVSAAVAERESAEVVKEGLAEKEVMEEQMEVEEQPPEGEEIEVAEEDRLEEEAREEEGPWPLHEALRMDPLEAIQLELDTVNAQADRAFQQLEHKFGRMRRHYLERRNYIIQNIPGFWMTAFRNHPQLSAMIRGQDAEMLRYITNLEVKELRHPRTGCKFKFFFRRNPYFRNKLIVKEYEVRSSGRVVSLSTPIIWRRGHEPQSFIRRNQDLICSFFTWFSDHSLPESDKIAEIIKEDLWPNPLQYYLLREGVRRARRRPLREPVEIPRPFGFQSG	1	1	–	–	–	–
PARL (protein, UniProt Q9H300 53-379, looked up) Presenilin-associated …: FRKAPRKVEPRRSDPGTSGEAYKRSALIPPVEETVFYPSPYPIRSLIKPLFFTVGFTGCAFGSAAIWQYESLKSRVQSYFDGIKADWLDSIRPQKEGDFRKEINKWWNNLSDGQRTVTGIIAANVLVFCLWRVPSLQRTMIRYFTSNPASKVLCSPMLLSTFSHFSLFHMAANMYVLWSFSSSIVNILGQEQFMAVYLSAGVISNFVSYVGKVATGRYGPSLGASGAIMTVLAAVCTKIPEGRLAIIFLPMFTFTAGNALKAIIAMDTAGMILGWKFFDHAAHLGGALFGIWYVTYGHELIWKNREPLVKIWHEIRTNGPKKGGGSK	1	1	–	–	2	2
